## Results of single-concentration screens

The chains behind the UniProt entries cited, without tags or fusion partners. Residues count along the entry.
UniProt A4I591, 1-473: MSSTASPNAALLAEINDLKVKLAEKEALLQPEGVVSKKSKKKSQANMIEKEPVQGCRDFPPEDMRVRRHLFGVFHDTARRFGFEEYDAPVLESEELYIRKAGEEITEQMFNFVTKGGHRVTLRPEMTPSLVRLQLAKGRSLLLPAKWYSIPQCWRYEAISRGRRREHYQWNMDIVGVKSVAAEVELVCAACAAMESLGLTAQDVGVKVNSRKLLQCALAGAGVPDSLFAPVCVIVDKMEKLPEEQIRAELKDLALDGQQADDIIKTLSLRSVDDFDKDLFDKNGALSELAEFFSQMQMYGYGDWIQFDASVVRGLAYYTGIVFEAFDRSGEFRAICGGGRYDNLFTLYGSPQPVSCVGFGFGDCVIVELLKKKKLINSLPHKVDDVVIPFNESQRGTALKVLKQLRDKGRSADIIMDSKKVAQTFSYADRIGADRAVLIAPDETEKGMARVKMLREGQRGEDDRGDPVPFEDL
UniProt I6X8D2, whole entry: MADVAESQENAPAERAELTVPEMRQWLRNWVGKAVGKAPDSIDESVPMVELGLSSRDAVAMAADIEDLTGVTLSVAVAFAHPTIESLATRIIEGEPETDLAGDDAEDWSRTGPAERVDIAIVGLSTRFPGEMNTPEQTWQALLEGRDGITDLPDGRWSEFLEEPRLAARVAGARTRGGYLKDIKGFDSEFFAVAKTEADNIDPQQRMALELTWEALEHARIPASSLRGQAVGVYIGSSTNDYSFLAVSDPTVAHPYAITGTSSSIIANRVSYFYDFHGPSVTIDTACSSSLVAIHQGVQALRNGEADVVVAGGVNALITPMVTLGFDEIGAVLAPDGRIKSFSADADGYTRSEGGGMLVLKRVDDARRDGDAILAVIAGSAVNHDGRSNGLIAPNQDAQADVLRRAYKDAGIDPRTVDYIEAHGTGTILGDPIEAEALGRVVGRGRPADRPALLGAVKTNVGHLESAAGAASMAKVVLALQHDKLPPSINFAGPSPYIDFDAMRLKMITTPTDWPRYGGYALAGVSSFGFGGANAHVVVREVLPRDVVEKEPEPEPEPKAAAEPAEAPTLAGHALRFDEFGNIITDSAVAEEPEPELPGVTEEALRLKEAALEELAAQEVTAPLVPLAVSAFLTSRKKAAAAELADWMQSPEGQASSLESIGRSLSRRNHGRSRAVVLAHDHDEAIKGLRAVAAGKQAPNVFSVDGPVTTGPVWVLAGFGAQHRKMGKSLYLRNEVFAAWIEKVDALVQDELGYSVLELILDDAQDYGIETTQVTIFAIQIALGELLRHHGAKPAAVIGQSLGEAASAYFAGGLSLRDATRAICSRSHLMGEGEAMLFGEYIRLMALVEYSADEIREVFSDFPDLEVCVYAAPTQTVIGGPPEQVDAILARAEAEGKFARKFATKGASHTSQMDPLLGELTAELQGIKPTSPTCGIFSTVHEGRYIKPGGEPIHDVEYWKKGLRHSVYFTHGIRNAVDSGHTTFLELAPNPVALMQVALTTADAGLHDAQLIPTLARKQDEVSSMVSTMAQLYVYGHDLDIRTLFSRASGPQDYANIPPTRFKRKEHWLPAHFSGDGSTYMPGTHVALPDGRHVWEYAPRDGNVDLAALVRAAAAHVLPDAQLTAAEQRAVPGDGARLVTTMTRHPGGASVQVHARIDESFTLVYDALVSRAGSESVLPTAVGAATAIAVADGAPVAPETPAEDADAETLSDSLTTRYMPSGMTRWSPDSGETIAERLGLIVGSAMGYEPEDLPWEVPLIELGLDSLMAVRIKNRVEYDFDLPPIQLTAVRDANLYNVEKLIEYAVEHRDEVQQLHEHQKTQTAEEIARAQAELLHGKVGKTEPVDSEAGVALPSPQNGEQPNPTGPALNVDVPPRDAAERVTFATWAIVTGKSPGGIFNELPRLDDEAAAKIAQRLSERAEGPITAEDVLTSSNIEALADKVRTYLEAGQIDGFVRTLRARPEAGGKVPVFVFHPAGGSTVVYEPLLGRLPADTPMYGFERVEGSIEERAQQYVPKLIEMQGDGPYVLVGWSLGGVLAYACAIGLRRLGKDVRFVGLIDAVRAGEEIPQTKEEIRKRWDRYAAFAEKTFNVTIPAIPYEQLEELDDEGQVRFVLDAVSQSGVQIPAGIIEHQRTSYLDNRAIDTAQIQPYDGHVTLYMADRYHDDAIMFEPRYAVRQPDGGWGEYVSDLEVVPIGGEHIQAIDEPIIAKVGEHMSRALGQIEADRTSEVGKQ
UniProt P9WFT3, whole entry: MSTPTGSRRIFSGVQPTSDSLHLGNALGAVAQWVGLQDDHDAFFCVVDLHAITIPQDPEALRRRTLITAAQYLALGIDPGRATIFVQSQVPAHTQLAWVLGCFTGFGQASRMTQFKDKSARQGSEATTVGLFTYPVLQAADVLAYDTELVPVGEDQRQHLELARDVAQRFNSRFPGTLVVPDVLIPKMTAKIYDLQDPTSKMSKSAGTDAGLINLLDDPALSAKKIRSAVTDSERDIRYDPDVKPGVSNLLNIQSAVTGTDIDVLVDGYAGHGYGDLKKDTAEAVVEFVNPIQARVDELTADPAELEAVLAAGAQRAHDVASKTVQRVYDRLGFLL
UniProt Q4DA54, 1-478: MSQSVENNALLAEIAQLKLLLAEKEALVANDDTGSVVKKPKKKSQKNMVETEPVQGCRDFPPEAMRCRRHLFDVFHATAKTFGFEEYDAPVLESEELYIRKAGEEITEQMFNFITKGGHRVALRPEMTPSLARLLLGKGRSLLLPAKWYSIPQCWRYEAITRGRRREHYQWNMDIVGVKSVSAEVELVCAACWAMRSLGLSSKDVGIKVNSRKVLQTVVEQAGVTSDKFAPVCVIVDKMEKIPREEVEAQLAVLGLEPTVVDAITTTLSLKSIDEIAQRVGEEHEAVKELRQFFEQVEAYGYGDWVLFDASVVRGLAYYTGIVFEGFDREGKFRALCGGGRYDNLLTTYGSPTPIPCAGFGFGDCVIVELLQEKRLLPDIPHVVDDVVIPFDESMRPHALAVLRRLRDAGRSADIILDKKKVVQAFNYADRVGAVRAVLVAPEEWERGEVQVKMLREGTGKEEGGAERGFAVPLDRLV

Data taken from ChEMBL document CHEMBL3988442, “University of Dundee, Small-Polar-MMV Screening Library” (2021).

Results are given as percent effect.
The record does not define 0% and 100%; most values in the screen are far below 50% and negative numbers occur (in some assays of this library far below -100).
Compounds were drawn at random from those tested, without regard to their results.

A: 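Enzyme assay of histidyl-tRNA synthetase; the read-out is not stated. Target: Histidine-tRNA ligase, Leishmania infantum (UniProt A4I591). Tested at 30 µM. The record gives no direction; compounds that gave an IC50 in retests scored well above the rest, so higher reads as stronger inhibition. The assay is labelled LdHisRS but filed under L. infantum. About 69,000 compounds were tested under these conditions; 0.6% (about 410) showed 50% or more at least once.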
B: 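Polyketide synthase Pks13, Mycobacterium tuberculosis (UniProt I6X8D2). Enzyme assay of the thioesterase domain of polyketide synthase 13; the read-out is not stated. Concentration: 30 µM. The record gives no direction; the compounds picked for IC50 retests had high values, so higher reads as stronger inhibition. About 67,000 compounds were tested under these conditions; 0.46% (about 300) showed 50% or more at least once.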
C: 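Enzyme assay of tryptophanyl-tRNA synthetase; the read-out is not stated. Target: Tryptophan-tRNA ligase, Mycobacterium tuberculosis (UniProt P9WFT3). Tested at 10 µM. Higher most likely means stronger inhibition; the record gives no direction and few retests gave an IC50. Size under these conditions: about 65,000 compounds, about 64 of them at 50% or above in at least one test.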
D: 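Histidine-tRNA ligase, Trypanosoma cruzi CL Brener (UniProt Q4DA54). Enzyme assay of histidyl-tRNA synthetase; the read-out is not stated. Concentration: 30 µM. Direction is inferred from retests: higher values go with stronger inhibition. About 69,000 compounds were tested under these conditions; 0.045% (about 31) showed 50% or more at least once.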

CCNc1nc(N(C)C)nc(-n2cnc(SC)n2)n1 gave A: 3.371%; B: -6.268%; C: -3.155%; D: 3.627%. CC(C)C(N)CNS(=O)(=O)Cc1cccc2cccnc12 (stereo not shown) gave A: 12.5%; B: -5.91%; C: 1.077%; D: 2.632%. With CC(=O)N1CCCN(C(=O)c2cnn(C(C)(C)C)c2C)CC1 the screen gave A: 9.615%; B: -6.338%; C: 8.267%; D: 7.429%. With CCn1cnnc1CNC(=O)CCC(=O)c1ccc2c(c1)OCCO2 the screen gave A: 33.33%; B: -0.417%; C: -2.269%; D: 0%.

Result for OCc1ccncc1NCc1cnc(-c2ccccn2)s1 was A: 15.25%; B: -31.11%; C: -0.7098%; D: 3.415%. O=C(O)c1cccc2c(Br)cccc12 gave A: 15.04%; B: -8.253%; C: -6.505%; D: 1.327%. Fc1cccc(Cc2cncc(C3CCCN3C3CCOCC3)n2)c1 (stereo not shown) gave A: 5.797%; B: -4.567%; C: -4.285%; D: 7.576%. With Cc1noc(C)c1CN1CCN(C(=O)CCn2cncn2)CC1 the screen gave A: 9.091%; C: -0.09234%; D: 0%.

Cc1ccc(NC(=O)Nc2c[nH]c(=O)[nH]c2=O)c(C)c1 gave A: -1.087%; B: -13.1%; C: -1.244%; D: 1.98%. Result for N#Cc1cn[nH]c1NCc1cc(Cl)cc(Cl)c1O was A: -9.524%; B: -48.73%; C: 8.639%; D: 1.98%. With CCC(=O)N1CCCN(C(=O)C2SCCc3sccc32)CC1 (stereo not shown) the screen gave A: -6.25%; B: -13.25%; C: 0.3812%; D: -1.724%. CC(C)c1cc(C(=O)N(C)C(C)c2nccs2)no1 (stereo not shown) read A: 18.28%; B: 10.09%; C: -0.859%; D: 12.5%.

With CCNC(=O)c1ccc(NC(=O)N(C)Cc2cccn2C)c(C)c1 the screen gave A: 6.667%; B: -20.07%; C: -3.065%; D: -2.609%. For c1cnnc(N2CCCC2CNCc2cc[nH]n2)c1 (stereo not shown) the result was A: -2.4%; B: -1.99%; C: 0.6289%; D: 0.3802%. CN(C)C(=O)[C@@H]1CCO[C@@H]2CCN(Cc3ccc4c(c3)OCO4)C[C@@H]21 read A: 21.57%; B: -9.781%; C: -1.055%; D: -0.5464%. Result for Cc1cccc(N2CCN(CCNC(=O)c3ccnn3C)CC2)c1 was A: 13.46%; B: -12.66%; C: -4.128%; D: 8.021%.

Result for Cn1ncc(NC(=O)Cn2ccc(-c3cccc(F)c3)n2)n1 was A: 4.444%; B: -11.22%; C: 1.605%; D: -2.381%. COc1ccc(CN(Cc2cncn2C)CC2CCCO2)cc1 (stereo not shown) read A: 20.62%; B: -26.42%; D: 11.11%. O=C(c1ccc(O)nc1)N1CCN(C(=O)c2ccc(F)c(F)c2)CC1 gave A: 10.32%; B: -17.19%; C: -0.07468%; D: 16.47%. For CC(C)CC1(C(=O)NCc2nncn2C2CC2)CCC1 the result was A: 2.521%; B: -32.16%; C: 0.55%; D: 1.961%.

For O=c1[nH]c(CCN2CCCC2Cn2cccn2)nc2ccccc12 (stereo not shown) the result was A: 1.786%; B: -10.97%; C: -6.36%; D: 1.729%. For O=C(NCc1cscn1)NC1CCN(c2ncccc2Cl)C1 (stereo not shown) the result was A: 21.51%; B: -94.01%; C: -3.462%; D: 4.938%. For Cc1ccccc1CCCN(C)S(C)(=O)=O the result was A: 2.667%; B: -34.34%; C: -0.09671%; D: 1.63%. Result for O=C(O)c1ccc2[nH]cc(CN3CCCC3)c2c1 was A: 13.56%; B: -11.11%; C: -3.233%; D: 6.341%.

Result for c1cc2n(n1)CC(CNCc1ccc(OCC3CC3)nc1)CN2 (stereo not shown) was A: 27.4%; B: -22.04%; C: -1.199%; D: 3.817%. CCC(Nc1cccc(Oc2ccc(C#N)cc2)c1)C(N)=O (stereo not shown) gave A: 17.54%; B: 0.982%; C: -4.964%; D: 2.521%. With COc1ccc(C(=O)C2CCCN(c3cc(C#N)ccn3)C2)cc1OC (stereo not shown) the screen gave A: 8.065%; B: -2.043%; C: -3.303%; D: 1.754%. COc1ccc(Cc2ncc3c(n2)CN(C(=O)CO)C3)cc1 read A: 3.226%; B: -23.06%; C: -4.527%; D: 6.806%.

For Nc1nnnn1NCc1cccc(Cl)c1Cl the result was A: 18.52%; B: -15.44%; C: -0.2546%; D: -4.911%. Result for CC(Cc1ccco1)NC(=O)Nc1ccc(S(C)(=O)=O)nc1 (stereo not shown) was A: 2.4%; B: -16.56%; C: -1.415%; D: -2.662%.